Experimental data as given in article PMC9950529.
No constants are given. Whether binding was seen depends on the method and setting. In cells and extracts the contact can be indirect. These calls come from enrichment with a bait or labelling near it, and not all partners need be listed.

Sequences of proteins named here, by UniProt entry; tags and fusion partners are left off. A change or cut given only in a name is not applied to a line headed by its entry.
UniProt O54943: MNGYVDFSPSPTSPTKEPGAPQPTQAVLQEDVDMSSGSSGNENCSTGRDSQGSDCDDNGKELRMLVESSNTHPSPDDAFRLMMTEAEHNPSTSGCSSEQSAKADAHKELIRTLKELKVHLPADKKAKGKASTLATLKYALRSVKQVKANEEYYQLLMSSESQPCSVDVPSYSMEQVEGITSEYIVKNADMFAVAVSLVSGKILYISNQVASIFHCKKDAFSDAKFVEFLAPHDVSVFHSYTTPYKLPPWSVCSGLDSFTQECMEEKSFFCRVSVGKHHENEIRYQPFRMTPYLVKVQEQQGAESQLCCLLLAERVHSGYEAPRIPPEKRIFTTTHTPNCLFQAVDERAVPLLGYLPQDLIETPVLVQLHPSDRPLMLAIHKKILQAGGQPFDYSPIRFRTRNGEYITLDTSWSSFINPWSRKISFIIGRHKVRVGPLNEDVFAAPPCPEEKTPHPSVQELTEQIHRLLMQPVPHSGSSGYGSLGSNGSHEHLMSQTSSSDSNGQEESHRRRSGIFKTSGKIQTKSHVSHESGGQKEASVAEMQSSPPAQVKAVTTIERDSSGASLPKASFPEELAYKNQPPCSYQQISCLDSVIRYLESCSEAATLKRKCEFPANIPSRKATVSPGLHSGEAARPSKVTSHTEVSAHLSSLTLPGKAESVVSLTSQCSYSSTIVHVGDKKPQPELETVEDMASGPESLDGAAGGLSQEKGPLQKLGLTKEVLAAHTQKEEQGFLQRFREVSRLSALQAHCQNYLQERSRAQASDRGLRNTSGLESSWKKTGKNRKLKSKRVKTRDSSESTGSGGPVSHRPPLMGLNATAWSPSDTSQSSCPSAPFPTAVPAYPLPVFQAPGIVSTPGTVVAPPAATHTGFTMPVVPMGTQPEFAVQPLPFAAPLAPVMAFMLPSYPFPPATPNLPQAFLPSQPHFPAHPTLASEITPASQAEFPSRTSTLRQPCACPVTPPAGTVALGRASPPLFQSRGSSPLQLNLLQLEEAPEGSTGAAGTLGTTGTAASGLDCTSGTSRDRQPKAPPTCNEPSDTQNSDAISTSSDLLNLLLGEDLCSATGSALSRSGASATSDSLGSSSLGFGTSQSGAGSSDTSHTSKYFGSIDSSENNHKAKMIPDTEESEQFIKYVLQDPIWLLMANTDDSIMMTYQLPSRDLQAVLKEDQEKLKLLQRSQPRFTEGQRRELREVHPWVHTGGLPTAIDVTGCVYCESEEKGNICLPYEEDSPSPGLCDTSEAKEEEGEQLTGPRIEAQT
UniProt Q9DC28: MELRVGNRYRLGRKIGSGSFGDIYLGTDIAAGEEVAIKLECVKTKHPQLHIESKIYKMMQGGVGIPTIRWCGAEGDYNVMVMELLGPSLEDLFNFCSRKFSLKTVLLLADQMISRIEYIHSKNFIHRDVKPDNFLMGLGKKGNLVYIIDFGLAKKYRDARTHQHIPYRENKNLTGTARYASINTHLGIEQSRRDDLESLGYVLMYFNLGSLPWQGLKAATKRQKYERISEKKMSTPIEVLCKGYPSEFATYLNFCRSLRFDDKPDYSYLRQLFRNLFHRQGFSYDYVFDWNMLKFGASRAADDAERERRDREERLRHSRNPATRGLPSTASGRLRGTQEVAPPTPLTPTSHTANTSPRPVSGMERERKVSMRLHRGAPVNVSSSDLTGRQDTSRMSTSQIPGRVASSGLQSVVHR
UniProt Q9JMK2: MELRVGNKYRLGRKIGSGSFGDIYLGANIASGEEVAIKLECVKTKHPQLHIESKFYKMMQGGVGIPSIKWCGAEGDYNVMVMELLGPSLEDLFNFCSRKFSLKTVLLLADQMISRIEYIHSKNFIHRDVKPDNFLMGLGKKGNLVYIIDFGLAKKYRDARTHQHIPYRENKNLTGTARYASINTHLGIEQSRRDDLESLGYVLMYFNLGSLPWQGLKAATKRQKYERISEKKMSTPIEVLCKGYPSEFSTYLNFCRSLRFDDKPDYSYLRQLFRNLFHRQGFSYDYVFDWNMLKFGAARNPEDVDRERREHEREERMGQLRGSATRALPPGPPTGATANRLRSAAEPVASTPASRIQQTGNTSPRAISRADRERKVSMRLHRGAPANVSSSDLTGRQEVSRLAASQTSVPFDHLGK
UniProt O35973: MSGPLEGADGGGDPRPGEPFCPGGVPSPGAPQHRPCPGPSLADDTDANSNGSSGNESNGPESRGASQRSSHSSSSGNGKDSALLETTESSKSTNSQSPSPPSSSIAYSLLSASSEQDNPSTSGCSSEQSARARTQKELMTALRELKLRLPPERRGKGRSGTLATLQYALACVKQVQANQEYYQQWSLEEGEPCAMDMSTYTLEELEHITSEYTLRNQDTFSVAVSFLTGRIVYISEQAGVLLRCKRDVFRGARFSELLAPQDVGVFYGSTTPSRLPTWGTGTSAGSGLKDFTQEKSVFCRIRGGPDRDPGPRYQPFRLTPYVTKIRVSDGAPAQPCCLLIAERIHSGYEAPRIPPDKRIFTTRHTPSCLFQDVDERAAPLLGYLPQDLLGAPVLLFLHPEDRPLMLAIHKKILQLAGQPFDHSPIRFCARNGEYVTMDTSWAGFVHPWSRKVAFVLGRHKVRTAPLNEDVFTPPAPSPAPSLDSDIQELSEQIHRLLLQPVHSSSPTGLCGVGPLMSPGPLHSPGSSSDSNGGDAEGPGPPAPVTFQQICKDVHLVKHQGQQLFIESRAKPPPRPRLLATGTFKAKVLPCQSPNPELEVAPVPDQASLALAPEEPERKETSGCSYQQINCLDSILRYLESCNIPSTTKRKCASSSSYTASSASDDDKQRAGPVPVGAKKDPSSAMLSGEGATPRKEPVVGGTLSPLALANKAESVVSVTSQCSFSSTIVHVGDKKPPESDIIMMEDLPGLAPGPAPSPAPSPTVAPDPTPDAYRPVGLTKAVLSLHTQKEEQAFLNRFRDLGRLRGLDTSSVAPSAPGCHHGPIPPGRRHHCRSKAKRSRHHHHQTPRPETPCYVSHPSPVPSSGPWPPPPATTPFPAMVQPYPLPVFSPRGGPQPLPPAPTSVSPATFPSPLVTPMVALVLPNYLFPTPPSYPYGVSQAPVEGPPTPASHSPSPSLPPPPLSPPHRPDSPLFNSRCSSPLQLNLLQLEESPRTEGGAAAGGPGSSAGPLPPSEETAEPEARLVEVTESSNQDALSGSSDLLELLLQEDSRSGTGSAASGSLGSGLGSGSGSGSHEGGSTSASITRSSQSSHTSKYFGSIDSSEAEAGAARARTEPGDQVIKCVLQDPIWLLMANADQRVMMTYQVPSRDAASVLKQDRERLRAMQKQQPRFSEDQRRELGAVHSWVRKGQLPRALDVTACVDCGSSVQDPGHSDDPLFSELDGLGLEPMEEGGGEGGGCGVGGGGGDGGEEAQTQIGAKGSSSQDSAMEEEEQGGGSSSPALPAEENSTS

Experiments:
[1] = molecular target: T1, CRY1 (mouse (endogenous in mouse liver)) (UniProt P97784); test: affinity purification with mass spectrometry; anti-CRY1 (IgM) on protein L magnetic beads, mouse liver nuclear extracts of ZT0, ZT12, ZT19 at 150 mM KCl after high-speed centrifugation, overnight, eluted with CRY1 peptide, LC-MS/MS; negative controls IgM and Cry1/2-/- extract
T1 sequence: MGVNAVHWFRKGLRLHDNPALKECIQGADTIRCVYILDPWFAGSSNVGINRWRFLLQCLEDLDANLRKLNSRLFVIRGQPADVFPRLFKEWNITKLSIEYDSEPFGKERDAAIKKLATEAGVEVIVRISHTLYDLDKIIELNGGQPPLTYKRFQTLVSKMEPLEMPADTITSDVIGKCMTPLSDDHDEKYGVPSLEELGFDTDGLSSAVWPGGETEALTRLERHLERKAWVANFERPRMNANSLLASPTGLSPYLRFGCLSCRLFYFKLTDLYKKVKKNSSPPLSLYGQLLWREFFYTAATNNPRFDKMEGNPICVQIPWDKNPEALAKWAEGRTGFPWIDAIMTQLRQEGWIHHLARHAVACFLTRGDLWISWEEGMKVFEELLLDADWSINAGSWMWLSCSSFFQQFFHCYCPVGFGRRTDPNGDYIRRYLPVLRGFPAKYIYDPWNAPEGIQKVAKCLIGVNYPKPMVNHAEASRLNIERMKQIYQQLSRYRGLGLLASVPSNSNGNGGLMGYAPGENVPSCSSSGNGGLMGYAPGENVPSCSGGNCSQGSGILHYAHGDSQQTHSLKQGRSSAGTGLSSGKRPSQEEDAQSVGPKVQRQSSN

[2] = molecular target: PER2 (mouse (endogenous in mouse liver)) (UniProt O54943); test: affinity purification with mass spectrometry; anti-PER2 on Dynabeads protein G, mouse liver nuclear extract of ZT19 at 150 mM KCl after high-speed centrifugation, overnight, eluted by boiling in SDS sample buffer, LC-MS/MS; negative controls immunoglobulin and Per1/2-/- extract

Molecule: CK1δ (from UniProt Q9DC28 1-415) (enzyme)
- binding [1]: binds
- binding [2]: binds

Molecule: CK1ε (from UniProt Q9JMK2 1-416) (enzyme)
- binding [2]: binds

Molecule: PER1 (from UniProt O35973 1-1291)
- binding [2]: binds

B1: PER3 (protein, UniProt O70361 1-1113)
chain: MDPCGDPAVPGGDCPQTRGPGLQGASGQEGPLQGTCVDSSHSEHEDRNRMSEELIMVVQEMKKYFPAERHTKPSTLDALNYALRCVHSVQANSDFFQSLGPRGAHQADVTVYSLEDLTALASEHTSKNTDTFAAVFSFLSGRLVHISEQAALILNSKRGFLKSVHFVDLLAPQDVRAFYAHTAPTQLPFWNNWTQRASQYECAPAKPFFCRICGGGDREKRHYSPFRILPYLVHVHSSAQPEPEPCCLTLVEKIHSGYEAPRIPVDKRIFTTTHTPGCVFLEVDERAVPLLGYLPQDLIGTSILTYLHPEDRPLMVAIHQKVLKYAGHPPFEHSPVRFCTQNGEYVILDSSWSSFVNPWSRKVSFIIGRHKVRTSPLNEDVFATRIKKAASNDKDIAELQEQIHKLLLQPVHASASSGYGSLGSSGSQEQHVSITSSSESSGHCPEEGQHEQMTLQQVYASVNKIKNVGQQLYIESMARSSVKPVAETCVEPQGGDEQKDFSSSQTLKNKSTTDTGSGGNLQQEQPSSSYQQMNCIDSVIRYLTSYSLPALKRKCISCTNTSSSSEEAKPIPEVDSSQRDTEQLLDIRKQETTGPSTDIEGGAARTLSTAALSVASGISQCSCSSTSGHAPPLQSESVAVACKPWALRTKASHLAAGGFKHVGLTAAVLSAHTQKEEQNYVDRFREKILTSPYGCYLQQESRNRAQYSCVQAGSTAKHSRCAGSERQKHKRKKLPAPVDTSSPGAHLCPHVTGLLPDEQHWGPSASPSPLGAGLAFPSALVVPSQTPYLLPSFPLQDMASQGVGVSAAWGAAAGCPPLSAGPQAVAAFPSAYVDTLMTIFLHNAPLFPLWPPSFSPYPSLGAAGSSELAPLVPAMAPNPEPTTSGHSQRRVEENWEAHSEELPFISSRSSSPLQLNLLQEEMPAPSESADAVRRGAGPDAKHHCVTGPSGSRSRHCTSGELATATAQQESAAASGSSASSIYFSSTDYASEVSENRQRPQDRQRDEALPGAAEESIWRMIERTPECVLMTYQVPERGREEVLKQDLEKLQSMEQQQPLFSPAQREELAKVRSWIHSHTAPQEGHLQSCVACEDRGSVGDTAEVLEQHPAEDTS
- binding [2]: binds
